Results: publication PMC10415494, “Ga(III) pyridinecarboxylate complexes: potential analogues of the second generation of therapeutic Ga(III) complexes?” (Journal of Biological Inorganic Chemistry, 2023)
In brackets after ≈: the same amount, converted by molar mass.

Test system: Escherichia coli (E. coli) CCM 3988
Assay: Antimicrobial activity, macrodilution method (growth by A590)
Format: cell-based
Conditions: CCM3988, positive control, read-out: MIC100 for E. coli
Method: The antimicrobial activities of gallium(III) complexes GaPic, GaDpic, GaChel, GaCldpic, free ligands (HPic, H2Dpic, H2Chel, H2Cldpic) and positive controls (cefoxitin (C), ampicillin (A) and piperacillin (P)) were evaluated by macrodilution method using G^+ bacteria (Firmicutes) Staphylococcus aureus (S. aureus) CCM 3953 (Czech Collection of Microorganisms), G^− bacteria (γ-proteobacteria) Escherichia coli (E. coli) CCM 3988, Pseudomonas aeruginosa (P. aeruginosa) CCM 1959 (Czech Collection of Microorganisms) and the yeast Candida parapsilosis (C. parapsilosis) ATCC 22019 (American type culture collection). Cultures of bacteria (in Mueller–Hinton broth, MHB) and yeasts (in Sabouraud’s growth medium, SB) were incubated under shaking (250 rpm) at 37 °C. The growth of bacteria and yeasts was evaluated by measuring the absorbance of the growing cultures (A590) until the cultures reached the stationary growth phase. The effects of gallium(III) complexes on the growth of filamentous fungi Rhizopus oryzae (R. oryzae) CCM F-8284, Alternaria alternata (A. alternata) CCM F-128 and Microsporum gypseum (M. gypseum) CCM F-8342 (Czech Collection of Microorganisms) were observed by macrodilution method on solidified potato-dextrose growth medium (PDA). During culturing, the diameters of growing fungal colonies were measured at regular intervals. […] The IC50 values were evaluated from toxicity curves. […]

`CC1(C)S[C@@H]2[C@H](NC(=O)[C@H](N)c3ccccc3)C(=O)N2[C@H]1C(=O)O` [ampicillin] showed an MIC of 2.86 µM (≈ 0.999 µg/mL).
